# Cleaved PARP after 72 h of treatment

Values as published with doi:10.1371/journal.pone.0140310, rounded.

Drug key:
FK866 (0.05 µM): O=C(/C=C/c1cccnc1)NCCCCC1CCN(C(=O)c2ccccc2)CC1
SU6656 (2 µM): CN(C)S(=O)(=O)c1ccc2c(c1)/C(=C/c1cc3c([nH]1)CCCC3)C(=O)N2
embelin (6 µM): CCCCCCCCCCCC1=C(O)C(=O)C=C(O)C1=O
CHIR-265 (0.4 µM): Cn1c(Nc2ccc(C(F)(F)F)cc2)nc2cc(Oc3ccnc(-c4ncc(C(F)(F)F)[nH]4)c3)ccc21
perifosine (2 µM): CCCCCCCCCCCCCCCCCCOP(=O)([O-])OC1CC[N+](C)(C)CC1
sorafenib (2 µM): CNC(=O)c1cc(Oc2ccc(NC(=O)Nc3ccc(Cl)c(C(F)(F)F)c3)cc2)ccn1
NVP-TAE684 (0.4 µM): COc1cc(N2CCC(N3CCN(C)CC3)CC2)ccc1Nc1ncc(Cl)c(Nc2ccccc2S(=O)(=O)C(C)C)n1
KU-55933 (5 µM): O=c1cc(-c2cccc3c2Sc2ccccc2S3)oc(N2CCOCC2)c1
JZL184 (5 µM): O=C(Oc1ccc([N+](=O)[O-])cc1)N1CCC(C(O)(c2ccc3c(c2)OCO3)c2ccc3c(c2)OCO3)CC1

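Human melanoma cells were exposed to a pair of drugs for 72 h in 1,536-well plates and read by automated microscopy after fixing and staining. Each value is the cleaved-PARP-positive fraction of nuclei relative to DMSO-treated wells, in %, so that 100 equals the control and higher values mean more apoptosis. Every drug was used at one fixed concentration, the higher of two screened. These are primary screening values without error estimates. Basal and induced levels differ widely between cell lines.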 Only some of the drugs and lines screened are listed, without regard to their results.

| Combination | G-361 | A101D | WM3619 |
|---|---|---|---|
| CHIR-265 and embelin | 740 | 82.6 | 199 |
| FK866 and perifosine | 5770 | 57.8 | 94.8 |
| embelin and perifosine | 126 | 51.0 | 106 |
| NVP-TAE684 and JZL184 | 68.0 | 74.3 | 101 |
| embelin and KU-55933 | 148 | 56.2 | 111 |
| SU6656 and embelin | 306 | 65.3 | 271 |
| NVP-TAE684 and CHIR-265 | 406 | 267 | 213 |
| KU-55933 and JZL184 | 154 | 69.7 | 154 |
| KU-55933 and FK866 | 5360 | 189 | 98.5 |
| KU-55933 and perifosine | 158 | 180 | 81.9 |
| sorafenib and KU-55933 | 110 | 72.5 | 93.7 |
| perifosine and NVP-TAE684 | 105 | 179 | 121 |
| sorafenib and FK866 | 5500 | 67.0 | 90.0 |
| SU6656 and NVP-TAE684 | 117 | 158 | 119 |
| embelin and NVP-TAE684 | 106 | 109 | 119 |
| KU-55933 and SU6656 | 340 | 68.7 | 143 |
| NVP-TAE684 and FK866 | 4720 | 362 | 139 |
| embelin and FK866 | 3750 | 75.1 | 116 |
| sorafenib and embelin | 110 | 75.6 | 259 |
| sorafenib and perifosine | 93.2 | 22.3 | 90.9 |
| JZL184 and embelin | 151 | 46.0 | 98.1 |
| FK866 and CHIR-265 | 2990 | 182 | 193 |
| CHIR-265 and SU6656 | 1020 | 64.2 | 189 |
| JZL184 and sorafenib | 350 | 100 | 101 |
| perifosine and SU6656 | 139 | 142 | 138 |
| CHIR-265 and sorafenib | 443 | 121 | 193 |
| JZL184 and CHIR-265 | 830 | 134 | 309 |
| KU-55933 and NVP-TAE684 | 136 | 220 | 123 |
| perifosine and CHIR-265 | 536 | 126 | 251 |
| SU6656 and FK866 | 6900 | 59.9 | 104 |
| sorafenib and SU6656 | 167 | 36.9 | 122 |

Some entries from above, unchanged:

Combination	G-361	A101D	WM3619
perifosine and CHIR-265	536	126	251
sorafenib and KU-55933	110	72.5	93.7